The supplement of paper PMC10849652
The other results are listed elsewhere or left out.

The chains behind the UniProt entries cited, without tags or fusion partners. Where a name states a change or a piece, a line headed by the entry shows the natural chain unless it says otherwise.
UniProt Q9P0T7: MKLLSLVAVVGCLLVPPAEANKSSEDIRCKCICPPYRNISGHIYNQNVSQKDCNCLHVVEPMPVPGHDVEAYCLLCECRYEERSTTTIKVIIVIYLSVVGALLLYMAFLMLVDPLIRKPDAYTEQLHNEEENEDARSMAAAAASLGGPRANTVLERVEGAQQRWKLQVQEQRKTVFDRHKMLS
UniProt Q15025: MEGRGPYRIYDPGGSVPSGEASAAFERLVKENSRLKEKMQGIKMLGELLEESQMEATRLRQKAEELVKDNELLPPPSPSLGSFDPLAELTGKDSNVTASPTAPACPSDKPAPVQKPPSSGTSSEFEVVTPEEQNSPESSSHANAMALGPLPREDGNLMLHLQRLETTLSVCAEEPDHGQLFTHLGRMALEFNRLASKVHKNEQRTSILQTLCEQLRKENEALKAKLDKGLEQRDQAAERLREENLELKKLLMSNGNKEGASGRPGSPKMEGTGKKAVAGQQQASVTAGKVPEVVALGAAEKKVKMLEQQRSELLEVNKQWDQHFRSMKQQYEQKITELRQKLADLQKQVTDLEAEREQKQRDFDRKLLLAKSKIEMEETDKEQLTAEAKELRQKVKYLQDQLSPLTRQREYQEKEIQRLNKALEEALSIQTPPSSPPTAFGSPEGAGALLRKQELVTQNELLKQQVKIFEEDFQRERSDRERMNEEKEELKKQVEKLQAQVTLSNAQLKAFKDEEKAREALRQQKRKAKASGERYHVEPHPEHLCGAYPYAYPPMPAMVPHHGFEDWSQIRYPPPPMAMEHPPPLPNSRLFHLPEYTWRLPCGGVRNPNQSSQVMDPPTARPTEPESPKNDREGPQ
UniProt Q13641: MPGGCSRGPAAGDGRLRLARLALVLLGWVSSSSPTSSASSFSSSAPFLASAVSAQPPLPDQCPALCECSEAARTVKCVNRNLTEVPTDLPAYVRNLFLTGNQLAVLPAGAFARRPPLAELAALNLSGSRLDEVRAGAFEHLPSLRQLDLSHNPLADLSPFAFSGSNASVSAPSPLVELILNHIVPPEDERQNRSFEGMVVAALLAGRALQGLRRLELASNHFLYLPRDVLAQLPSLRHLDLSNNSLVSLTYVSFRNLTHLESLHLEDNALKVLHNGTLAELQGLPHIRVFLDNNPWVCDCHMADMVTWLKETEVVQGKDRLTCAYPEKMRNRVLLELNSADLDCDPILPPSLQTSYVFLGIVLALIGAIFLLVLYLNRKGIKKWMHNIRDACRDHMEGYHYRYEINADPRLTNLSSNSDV
UniProt Q8NDV7: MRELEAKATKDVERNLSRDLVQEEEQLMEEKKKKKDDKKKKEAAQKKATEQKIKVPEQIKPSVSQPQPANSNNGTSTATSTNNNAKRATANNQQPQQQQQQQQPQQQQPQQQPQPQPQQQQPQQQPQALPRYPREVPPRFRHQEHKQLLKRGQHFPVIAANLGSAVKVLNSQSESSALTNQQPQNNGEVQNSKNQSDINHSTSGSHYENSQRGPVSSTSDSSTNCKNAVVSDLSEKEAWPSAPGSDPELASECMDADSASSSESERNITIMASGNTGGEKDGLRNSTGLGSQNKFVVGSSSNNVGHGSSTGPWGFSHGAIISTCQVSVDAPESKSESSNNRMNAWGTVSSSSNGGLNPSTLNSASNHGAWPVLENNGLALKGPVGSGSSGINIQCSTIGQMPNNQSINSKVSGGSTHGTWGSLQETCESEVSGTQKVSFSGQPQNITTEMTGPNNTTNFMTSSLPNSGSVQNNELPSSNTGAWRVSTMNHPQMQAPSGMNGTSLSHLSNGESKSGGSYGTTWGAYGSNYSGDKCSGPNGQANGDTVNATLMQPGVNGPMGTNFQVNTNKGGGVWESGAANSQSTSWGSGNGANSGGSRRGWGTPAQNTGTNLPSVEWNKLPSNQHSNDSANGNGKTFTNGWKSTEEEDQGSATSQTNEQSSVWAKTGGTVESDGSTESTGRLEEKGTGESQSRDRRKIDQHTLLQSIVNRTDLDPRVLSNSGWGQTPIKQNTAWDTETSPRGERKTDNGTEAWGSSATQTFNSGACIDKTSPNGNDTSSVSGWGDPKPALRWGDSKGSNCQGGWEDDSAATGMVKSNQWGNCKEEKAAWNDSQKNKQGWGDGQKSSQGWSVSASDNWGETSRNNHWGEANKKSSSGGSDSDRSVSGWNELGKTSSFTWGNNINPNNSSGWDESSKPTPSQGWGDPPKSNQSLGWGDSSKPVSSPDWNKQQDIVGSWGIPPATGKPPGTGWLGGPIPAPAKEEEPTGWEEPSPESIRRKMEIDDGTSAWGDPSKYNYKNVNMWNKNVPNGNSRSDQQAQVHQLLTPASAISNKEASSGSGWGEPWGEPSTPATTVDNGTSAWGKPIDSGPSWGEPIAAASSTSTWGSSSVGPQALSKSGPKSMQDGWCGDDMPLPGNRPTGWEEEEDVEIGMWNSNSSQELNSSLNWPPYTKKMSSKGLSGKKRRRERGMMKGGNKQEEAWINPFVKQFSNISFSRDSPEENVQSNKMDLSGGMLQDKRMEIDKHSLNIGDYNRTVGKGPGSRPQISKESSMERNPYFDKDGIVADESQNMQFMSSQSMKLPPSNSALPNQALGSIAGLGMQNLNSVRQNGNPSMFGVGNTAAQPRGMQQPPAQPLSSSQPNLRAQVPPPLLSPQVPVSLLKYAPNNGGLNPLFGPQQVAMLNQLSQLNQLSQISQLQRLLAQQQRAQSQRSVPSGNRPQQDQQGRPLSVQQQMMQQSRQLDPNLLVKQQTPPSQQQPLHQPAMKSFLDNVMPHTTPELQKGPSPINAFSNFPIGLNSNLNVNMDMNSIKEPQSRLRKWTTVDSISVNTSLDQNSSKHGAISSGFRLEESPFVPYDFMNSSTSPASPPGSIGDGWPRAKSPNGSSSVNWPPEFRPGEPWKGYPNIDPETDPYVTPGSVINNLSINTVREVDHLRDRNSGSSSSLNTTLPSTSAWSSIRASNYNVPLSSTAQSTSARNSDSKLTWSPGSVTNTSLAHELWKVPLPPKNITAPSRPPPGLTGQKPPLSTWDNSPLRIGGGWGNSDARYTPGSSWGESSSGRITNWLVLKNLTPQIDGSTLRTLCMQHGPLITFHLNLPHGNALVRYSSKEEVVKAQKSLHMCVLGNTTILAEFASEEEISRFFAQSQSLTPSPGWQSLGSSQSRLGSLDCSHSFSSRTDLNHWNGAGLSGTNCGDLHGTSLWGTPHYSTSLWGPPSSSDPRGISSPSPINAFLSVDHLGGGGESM
UniProt Q96A57: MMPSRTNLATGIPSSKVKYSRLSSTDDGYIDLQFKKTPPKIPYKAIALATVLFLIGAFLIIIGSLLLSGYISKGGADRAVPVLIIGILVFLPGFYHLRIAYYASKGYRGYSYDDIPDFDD
UniProt Q9NWD8: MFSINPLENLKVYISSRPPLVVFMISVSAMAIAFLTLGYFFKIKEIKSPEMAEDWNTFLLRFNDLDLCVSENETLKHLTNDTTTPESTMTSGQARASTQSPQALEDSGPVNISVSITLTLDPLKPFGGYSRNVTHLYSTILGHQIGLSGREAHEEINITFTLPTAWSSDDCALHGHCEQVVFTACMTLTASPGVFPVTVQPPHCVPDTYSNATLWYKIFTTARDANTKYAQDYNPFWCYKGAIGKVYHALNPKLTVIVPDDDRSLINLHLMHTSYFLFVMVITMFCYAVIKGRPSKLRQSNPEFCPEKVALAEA
UniProt Q6ZT21: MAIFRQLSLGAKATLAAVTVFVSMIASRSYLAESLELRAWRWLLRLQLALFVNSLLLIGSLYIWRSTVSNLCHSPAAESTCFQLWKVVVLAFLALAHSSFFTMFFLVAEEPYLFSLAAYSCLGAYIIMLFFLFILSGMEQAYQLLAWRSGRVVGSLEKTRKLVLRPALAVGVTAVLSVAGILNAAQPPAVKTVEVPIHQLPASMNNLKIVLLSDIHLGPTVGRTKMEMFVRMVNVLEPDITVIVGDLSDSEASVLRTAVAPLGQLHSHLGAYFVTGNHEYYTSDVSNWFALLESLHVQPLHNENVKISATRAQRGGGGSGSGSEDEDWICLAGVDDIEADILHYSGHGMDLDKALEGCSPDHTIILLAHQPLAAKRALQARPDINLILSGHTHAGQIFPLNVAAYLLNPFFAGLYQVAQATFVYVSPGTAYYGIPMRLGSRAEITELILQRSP
UniProt Q13595: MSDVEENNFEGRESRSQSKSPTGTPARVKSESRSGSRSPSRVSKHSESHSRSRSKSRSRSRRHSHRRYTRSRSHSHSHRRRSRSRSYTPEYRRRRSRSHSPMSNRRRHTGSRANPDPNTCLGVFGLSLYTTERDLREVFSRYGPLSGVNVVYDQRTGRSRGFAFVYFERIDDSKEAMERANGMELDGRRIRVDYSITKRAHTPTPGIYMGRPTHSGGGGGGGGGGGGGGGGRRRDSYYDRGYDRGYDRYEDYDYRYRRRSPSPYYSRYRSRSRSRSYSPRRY
UniProt Q8NFZ5: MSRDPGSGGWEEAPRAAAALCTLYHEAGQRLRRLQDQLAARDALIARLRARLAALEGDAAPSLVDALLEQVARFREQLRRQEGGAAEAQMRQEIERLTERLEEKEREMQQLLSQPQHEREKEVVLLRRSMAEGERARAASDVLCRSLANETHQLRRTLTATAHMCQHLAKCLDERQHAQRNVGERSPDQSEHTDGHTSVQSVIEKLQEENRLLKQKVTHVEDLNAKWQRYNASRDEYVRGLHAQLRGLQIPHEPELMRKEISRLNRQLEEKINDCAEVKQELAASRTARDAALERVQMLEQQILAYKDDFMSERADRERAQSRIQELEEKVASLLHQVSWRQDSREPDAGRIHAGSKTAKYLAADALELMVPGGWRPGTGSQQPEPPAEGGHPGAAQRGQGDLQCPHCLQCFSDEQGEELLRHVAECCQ
UniProt P02585, whole entry, looked up: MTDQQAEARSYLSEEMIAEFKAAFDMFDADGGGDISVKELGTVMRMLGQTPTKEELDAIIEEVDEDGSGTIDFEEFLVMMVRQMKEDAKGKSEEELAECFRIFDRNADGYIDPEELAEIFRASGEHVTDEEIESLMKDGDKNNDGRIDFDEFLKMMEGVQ
UniProt O95271: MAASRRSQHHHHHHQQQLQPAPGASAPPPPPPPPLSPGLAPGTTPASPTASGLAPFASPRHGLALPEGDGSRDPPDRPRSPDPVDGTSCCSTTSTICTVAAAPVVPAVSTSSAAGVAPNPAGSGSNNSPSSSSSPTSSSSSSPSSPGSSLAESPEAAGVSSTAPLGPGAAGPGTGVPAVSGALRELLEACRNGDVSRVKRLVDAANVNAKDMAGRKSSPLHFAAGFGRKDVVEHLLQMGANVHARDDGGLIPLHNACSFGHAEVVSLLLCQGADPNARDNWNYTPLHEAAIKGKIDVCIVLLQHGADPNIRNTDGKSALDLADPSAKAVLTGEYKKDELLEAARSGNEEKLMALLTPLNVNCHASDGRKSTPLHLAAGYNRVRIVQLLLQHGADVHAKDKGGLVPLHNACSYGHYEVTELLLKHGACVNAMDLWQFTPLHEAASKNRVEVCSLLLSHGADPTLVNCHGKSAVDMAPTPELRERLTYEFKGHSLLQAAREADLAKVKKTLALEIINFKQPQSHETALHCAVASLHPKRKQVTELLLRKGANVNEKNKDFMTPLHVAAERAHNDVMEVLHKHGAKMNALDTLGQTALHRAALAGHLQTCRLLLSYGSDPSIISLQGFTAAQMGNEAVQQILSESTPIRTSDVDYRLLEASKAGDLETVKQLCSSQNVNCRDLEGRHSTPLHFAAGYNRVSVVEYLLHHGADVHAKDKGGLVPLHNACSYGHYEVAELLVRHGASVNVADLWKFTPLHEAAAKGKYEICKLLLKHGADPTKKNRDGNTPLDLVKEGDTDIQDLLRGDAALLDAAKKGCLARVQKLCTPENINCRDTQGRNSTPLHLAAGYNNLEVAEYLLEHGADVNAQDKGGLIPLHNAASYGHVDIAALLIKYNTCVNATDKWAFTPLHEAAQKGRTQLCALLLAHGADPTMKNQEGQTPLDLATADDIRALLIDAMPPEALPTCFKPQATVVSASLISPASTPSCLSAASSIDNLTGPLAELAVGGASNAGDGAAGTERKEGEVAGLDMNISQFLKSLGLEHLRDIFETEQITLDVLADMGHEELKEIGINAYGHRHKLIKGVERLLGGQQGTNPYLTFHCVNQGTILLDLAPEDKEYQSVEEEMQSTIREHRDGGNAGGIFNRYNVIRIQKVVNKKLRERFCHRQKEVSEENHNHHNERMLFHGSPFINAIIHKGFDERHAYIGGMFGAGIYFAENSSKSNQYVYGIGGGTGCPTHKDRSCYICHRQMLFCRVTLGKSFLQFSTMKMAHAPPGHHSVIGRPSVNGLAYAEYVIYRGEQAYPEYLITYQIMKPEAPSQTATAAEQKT
UniProt Q9BVT8: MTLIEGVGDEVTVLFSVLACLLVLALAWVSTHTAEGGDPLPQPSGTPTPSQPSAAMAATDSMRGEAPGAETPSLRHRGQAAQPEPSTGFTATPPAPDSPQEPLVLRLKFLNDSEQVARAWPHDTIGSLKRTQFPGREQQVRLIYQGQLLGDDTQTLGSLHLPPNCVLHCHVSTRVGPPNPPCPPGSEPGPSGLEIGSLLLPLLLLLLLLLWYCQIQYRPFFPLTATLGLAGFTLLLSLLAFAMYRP

Compound: CC1=C(C=C(C=C1)NC(=O)C2=CC(=CC=C2)C(C)(C)C#N)NC3=CC4=C(C=C3)N=CN(C4=O)C
Test: log2 fold change, soluble protein after heating vs DMSO (PISA); higher = thermal stabilisation; K562 lysate, 10 uM; active = over 0.2 and 3.5 SD of the protein, either way, in both replicates (recomputed)
Outline: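 Log-two fold change in thermal stability relative to solvent controls is reported from duplicates. For each sample, crude K562 extract from dounce-homogenised pellets in PBS pH 7.4 with 1 mM MgCl2, at 1 mg/mL protein, was treated with 10 μM compound for 30 min. Aliquots heated for 3 min across 48°C-58°C were pooled, brought to 0.5% NP-40 at 4°C and cleared at 21,000xg for 90 min. The supernatant was quantified by TMTpro 16plex LC-MS/MS with channel sums equalised.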

Question: With TRA2B (UniProt P62995) as the target, how does the log2 fold change read?
Answer: inactive: 0.064

Question: Which log2 fold change does the source give for TMEM9 (UniProt Q9P0T7) here?
Answer: inactive: 0.061

Question: How did the log2 fold change turn out when TNIP1 (UniProt Q15025) was run?
Answer: inactive: -0.061

Question: Which log2 fold change does the source give for TP53RK (UniProt Q96S44) here?
Answer: inactive: 0

Question: TPCN1 isoform 3 (UniProt Q9ULQ1) was tested. Which log2 fold change did it give?
Answer: inactive: 0.001

Question: How did the log2 fold change turn out when TPBG (UniProt Q13641) was run?
Answer: inactive: 0.151

Question: Which log2 fold change does the source give for TMEM19 (UniProt Q96HH6) here?
Answer: inactive: -0.152

Question: Which log2 fold change does the source give for TNRC6A (UniProt Q8NDV7) here?
Answer: inactive: -0.204

Question: TPM1 (UniProt H7BYY1) was tested. Which log2 fold change did it give?
Answer: inactive: -0.045

Question: How did the log2 fold change turn out when TMEM230 isoform 2 (UniProt Q96A57) was run?
Answer: inactive: -0.049

Question: With TPM3 (UniProt P06753) as the target, how does the log2 fold change read?
Answer: inactive: -0.038

Question: Which log2 fold change does the source give for TMUB2 (UniProt Q71RG4) here?
Answer: inactive: 0.033

Question: How did the log2 fold change turn out when TMEM248 (UniProt Q9NWD8) was run?
Answer: inactive: 0.122

Question: For TMPPE (UniProt Q6ZT21), which log2 fold change is on record?
Answer: inactive: -0.021

Question: For TRA2A (UniProt Q13595), which log2 fold change is on record?
Answer: inactive: 0.056

Question: How did the log2 fold change turn out when TNIP2 (UniProt Q8NFZ5) was run?
Answer: inactive: 0.11

Question: With TNNC2 (UniProt P02585) as the target, how does the log2 fold change read?
Answer: inactive: -0.036

Question: Which log2 fold change does the source give for TNKS (UniProt O95271) here?
Answer: inactive: 0.004

Question: How did the log2 fold change turn out when TNIK (UniProt C9J338) was run?
Answer: inactive: 0.16

Question: With TMEM94 isoform 2 (UniProt Q12767) as the target, how does the log2 fold change read?
Answer: inactive: -0.059

Question: For TMUB1 (UniProt Q9BVT8), which log2 fold change is on record?
Answer: inactive: -0.102

Question: TMOD2 (UniProt Q9NZR1) was tested. Which log2 fold change did it give?
Answer: inactive: 0.081

Question: How did the log2 fold change turn out when TPRG1L (UniProt Q5T0D9) was run?
Answer: inactive: 0.116
